Experimental data reported in paper PMC3859618.
No constants are given. Whether binding was seen depends on the method and setting. Binding seen in cells or lysates may run through a third protein. Some binding calls cover weakened binding; strength is not graded here.

The chains behind the UniProt entries cited, without tags or fusion partners.
UniProt P53350: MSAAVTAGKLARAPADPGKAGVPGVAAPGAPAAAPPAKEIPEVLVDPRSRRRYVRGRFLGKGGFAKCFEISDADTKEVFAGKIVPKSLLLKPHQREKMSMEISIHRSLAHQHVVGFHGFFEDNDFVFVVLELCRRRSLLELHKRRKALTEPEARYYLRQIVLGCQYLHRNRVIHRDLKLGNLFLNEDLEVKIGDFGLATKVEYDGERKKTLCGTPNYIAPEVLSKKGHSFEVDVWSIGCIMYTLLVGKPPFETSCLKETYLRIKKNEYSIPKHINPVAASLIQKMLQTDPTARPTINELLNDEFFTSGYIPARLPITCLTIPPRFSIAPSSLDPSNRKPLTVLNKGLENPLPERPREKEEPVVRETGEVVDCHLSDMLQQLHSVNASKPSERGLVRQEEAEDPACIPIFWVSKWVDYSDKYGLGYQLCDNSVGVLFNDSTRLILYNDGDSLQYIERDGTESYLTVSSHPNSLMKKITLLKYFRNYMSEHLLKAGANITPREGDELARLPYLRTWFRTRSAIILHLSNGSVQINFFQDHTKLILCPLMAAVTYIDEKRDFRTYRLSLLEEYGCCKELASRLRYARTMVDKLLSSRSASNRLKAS
UniProt Q14676: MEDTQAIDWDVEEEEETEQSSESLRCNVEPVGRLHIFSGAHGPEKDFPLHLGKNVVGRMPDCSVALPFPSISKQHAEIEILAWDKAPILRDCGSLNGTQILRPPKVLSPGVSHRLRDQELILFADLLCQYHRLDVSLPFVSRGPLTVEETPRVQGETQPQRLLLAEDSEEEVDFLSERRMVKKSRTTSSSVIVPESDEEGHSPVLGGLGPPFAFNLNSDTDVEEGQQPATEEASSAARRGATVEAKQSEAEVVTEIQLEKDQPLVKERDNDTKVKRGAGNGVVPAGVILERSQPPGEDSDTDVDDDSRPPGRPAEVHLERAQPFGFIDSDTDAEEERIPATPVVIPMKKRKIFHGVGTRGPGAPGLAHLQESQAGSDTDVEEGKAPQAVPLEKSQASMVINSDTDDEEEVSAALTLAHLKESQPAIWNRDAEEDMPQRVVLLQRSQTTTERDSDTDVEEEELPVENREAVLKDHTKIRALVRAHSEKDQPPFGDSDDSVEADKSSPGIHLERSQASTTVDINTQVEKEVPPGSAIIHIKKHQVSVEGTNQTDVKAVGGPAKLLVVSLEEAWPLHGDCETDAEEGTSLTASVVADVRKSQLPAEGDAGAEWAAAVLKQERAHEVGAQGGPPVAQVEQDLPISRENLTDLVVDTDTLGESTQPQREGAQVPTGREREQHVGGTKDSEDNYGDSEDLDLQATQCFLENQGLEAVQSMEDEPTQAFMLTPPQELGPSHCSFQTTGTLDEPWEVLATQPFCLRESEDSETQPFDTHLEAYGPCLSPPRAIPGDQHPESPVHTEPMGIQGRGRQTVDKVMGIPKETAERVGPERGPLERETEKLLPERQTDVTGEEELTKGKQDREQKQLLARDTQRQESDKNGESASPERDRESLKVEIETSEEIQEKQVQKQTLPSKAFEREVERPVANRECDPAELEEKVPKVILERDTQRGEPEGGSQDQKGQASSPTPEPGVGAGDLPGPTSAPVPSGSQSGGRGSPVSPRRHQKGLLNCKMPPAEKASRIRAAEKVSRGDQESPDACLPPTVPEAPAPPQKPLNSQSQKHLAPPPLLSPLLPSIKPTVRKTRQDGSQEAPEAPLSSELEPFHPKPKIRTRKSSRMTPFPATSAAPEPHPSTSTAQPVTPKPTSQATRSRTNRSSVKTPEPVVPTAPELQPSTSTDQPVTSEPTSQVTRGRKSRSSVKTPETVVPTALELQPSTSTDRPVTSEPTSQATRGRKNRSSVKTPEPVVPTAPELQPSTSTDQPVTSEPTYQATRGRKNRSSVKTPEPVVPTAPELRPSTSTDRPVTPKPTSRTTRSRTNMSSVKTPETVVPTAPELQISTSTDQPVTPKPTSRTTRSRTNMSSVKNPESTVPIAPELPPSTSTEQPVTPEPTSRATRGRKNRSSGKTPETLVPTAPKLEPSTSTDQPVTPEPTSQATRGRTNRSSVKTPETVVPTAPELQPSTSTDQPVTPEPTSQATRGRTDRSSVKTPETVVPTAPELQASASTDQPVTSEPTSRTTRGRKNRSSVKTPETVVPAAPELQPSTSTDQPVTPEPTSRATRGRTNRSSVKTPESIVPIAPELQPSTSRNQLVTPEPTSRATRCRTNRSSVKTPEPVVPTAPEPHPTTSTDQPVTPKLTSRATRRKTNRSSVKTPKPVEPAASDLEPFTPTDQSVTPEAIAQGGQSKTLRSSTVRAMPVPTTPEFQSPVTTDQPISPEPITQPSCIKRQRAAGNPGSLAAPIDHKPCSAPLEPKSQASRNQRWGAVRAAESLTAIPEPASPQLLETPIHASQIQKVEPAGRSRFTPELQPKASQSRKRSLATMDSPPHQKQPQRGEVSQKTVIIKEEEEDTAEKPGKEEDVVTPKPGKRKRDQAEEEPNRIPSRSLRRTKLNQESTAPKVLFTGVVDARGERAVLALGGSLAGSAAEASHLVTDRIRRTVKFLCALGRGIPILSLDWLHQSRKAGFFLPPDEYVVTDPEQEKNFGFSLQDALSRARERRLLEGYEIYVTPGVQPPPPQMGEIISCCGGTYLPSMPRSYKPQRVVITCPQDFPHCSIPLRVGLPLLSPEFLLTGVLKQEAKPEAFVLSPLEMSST

What was measured:
[1] = biological target: polo-like kinase 1 (PLK1) (human (endogenous in HeLa)) (UniProt P53350); experiment: co-IP; endogenous proteins; HeLa cells synchronized by double-thymidine block, whole cell lysates 6 h after the second release; immunoprecipitation with polyclonal anti-NFBD1 and blot with monoclonal anti-PLK1, and the reciprocal with monoclonal anti-PLK1; normal rabbit or mouse serum as control
[2] = biological target: nuclear factor with BRCT domain 1/ mediator of the DNA damage checkpoint protein 1 (NFBD1/MDC1) (human (endogenous in HeLa)) (UniProt Q14676); experiment: as above

Row | Substance | binding [1] | binding [2]
1 | nuclear factor with BRCT domain 1/ mediator of the DNA damage checkpoint protein 1 (NFBD1/MDC1) (from UniProt Q14676 1-2089) | binds | –
2 | polo-like kinase 1 (PLK1) (from UniProt P53350 1-603) (enzyme) | – | binds
